The other results are listed elsewhere or left out. Single values are uncertain, as repeats are few or missing.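 The apoptosis fraction was the count of cleaved-PARP antibody-stained nuclei relative to all DNA-stained nuclei, imaged in 1,536-well plates. Screening doses were set so most cells survived, and baseline and induced cleaved-PARP levels vary greatly across cell lines.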
Key:
Assay in all cases: cleaved PARP positive nuclei fraction relative to DMSO control; melanoma cells; higher = more apoptosis
Conditions in all cases: library dose: low library concentration; 72 h
501Mel = tested on: 501Mel
A101D = tested on: A101D
A2058 = tested on: A2058
C32 = tested on: C32
CBRC008 = tested on: CBRC008 (line from a melanoma biopsy)
CBRC014 = tested on: CBRC014 (line from a melanoma biopsy)
CBRC016 = tested on: CBRC016 (line from a melanoma biopsy)
CBRC017 = tested on: CBRC017 (line from a melanoma biopsy)
COLO792 = tested on: COLO792
COLO800 = tested on: COLO800
COLO829 = tested on: COLO829
G361 = tested on: G361
IPC-298 = tested on: IPC-298
IST-MEL1 = tested on: IST-MEL1
LB2518-MEL = tested on: LB2518-MEL
LOXIMVI = tested on: LOXIMVI

SMILES	cleaved PARP positive nuclei fraction (501Mel)	cleaved PARP positive nuclei fraction (A101D)	cleaved PARP positive nuclei fraction (A2058)	cleaved PARP positive nuclei fraction (C32)	cleaved PARP positive nuclei fraction (CBRC008)	cleaved PARP positive nuclei fraction (CBRC014)	cleaved PARP positive nuclei fraction (CBRC016)	cleaved PARP positive nuclei fraction (CBRC017)	cleaved PARP positive nuclei fraction (COLO792)	cleaved PARP positive nuclei fraction (COLO800)	cleaved PARP positive nuclei fraction (COLO829)	cleaved PARP positive nuclei fraction (G361)	cleaved PARP positive nuclei fraction (IPC-298)	cleaved PARP positive nuclei fraction (IST-MEL1)	cleaved PARP positive nuclei fraction (LB2518-MEL)	cleaved PARP positive nuclei fraction (LOXIMVI)
Cn1sc(=O)n(Cc2ccccc2)c1=O + O=S(=O)(c1ccccc1)N(CC(F)(F)F)c1ccc(C(O)(C(F)(F)F)C(F)(F)F)cc1 [T0901317] (first compound 0.4 µM, partner dose 1.4 µM)	67.3%	5.65%	150%	28.1%	152%	97.2%	15.3%	82.8%	115%	59.9%	186%	105%	49.9%	71.3%	59.5%	73.3%
CC(=O)O[C@@]12CO[C@@H]1C[C@H](O)[C@@]1(C)C(=O)[C@H](O)C3=C(C)[C@@H](OC(=O)[C@H](O)[C@@H](NC(=O)OC(C)(C)C)c4ccccc4)C[C@@](O)([C@@H](OC(=O)c4ccccc4)[C@H]21)C3(C)C [Docetaxel] + O=C(O)C(=O)Nc1sc2c(c1C(=O)O)CCNC2 [TCS401] (first compound 0.0001 µM, partner dose 1.66667 µM)	93.5%	27.8%	2610%	156%	509%	113%	146%	233%	777%	632%	441%	448%	147%	168%	95%	143%
CC1(C)CCC(c2ccc(Cl)cc2)=C(CN2CCN(c3ccc(C(=O)NS(=O)(=O)c4ccc(N[C@H](CCN5CCOCC5)CSc5ccccc5)c(S(=O)(=O)C(F)(F)F)c4)cc3)CC2)C1 + COc1cc2ncnc(Nc3ccc(Oc4ccccc4)cc3)c2cc1OC [SrcI1] (first compound 0.4 µM, partner dose 2 µM)	67.2%	167%	181%	240%	370%	299%	264%	259%	249%	178%	80.5%	114%	260%	78%	176%	195%
COc1ccc(C2=N[C@@H](c3ccc(Cl)cc3)[C@@H](c3ccc(Cl)cc3)N2C(=O)N2CCNC(=O)C2)c(OC(C)C)c1 [Nutlin-3] + COc1cc2ncnc(Nc3ccc(Oc4ccccc4)cc3)c2cc1OC [SrcI1] (first compound 0.1 µM, partner dose 2 µM)	82.1%	22.2%	42.3%	29.6%	122%	117%	62.2%	114%	139%	94%	30.8%	66.5%	65.6%	59.6%	132%	83.7%
Cn1cnc2c(F)c(Nc3ccc(Br)cc3Cl)c(C(=O)NOCCO)cc21 [selumetinib] + Oc1nc(-c2ccc(C(F)(F)F)cc2)nc2c1CSCC2 [XAV939] (first compound 0.015 µM, partner dose 2 µM)	116%	25.3%	116%	43%	108%	96%	130%	78.8%	59.9%	77.4%	83.8%	107%	55.9%	130%	111%	99.7%
CN(c1ncccc1CNc1nc(Nc2ccc3c(c2)CC(=O)N3)ncc1C(F)(F)F)S(C)(=O)=O + COc1ccc(COc2ccc(Cc3cnc(N)nc3N)cc2OC)cc1 [GW2580] (first compound 0.08 µM, partner dose 1 µM)	166%	71.7%	164%	84.2%	150%	90.3%	51.5%	78.5%	101%	300%	66.1%	93%	101%	662%	60.7%	91.9%
CS(=O)(=O)c1ccc(C(=O)Nc2ccc(Cl)c(-c3ccccn3)c2)c(Cl)c1 [vismodegib] + COc1ccc2c(c1)CCC1C2CCC2(C)C(NCCCCCCN3C(=O)C=CC3=O)CCC12 [U73122] (first compound 1 µM, partner dose 0.4 µM)	99.2%	14.1%	84.6%	84.6%	58.8%	112%	48.6%	48.1%	144%	185%	79.2%	64.7%	188%	123%	67.7%	144%
C[C@]1(O)C[C@@H](c2nc(-c3ccc4ccc(-c5ccccc5)nc4c3)c3c(N)nccn32)C1 + O=C1NC(=O)/C(=C/c2ccc(-c3ccc(F)cc3O)o2)S1 [AS252424] (first compound 0.4 µM, partner dose 1 µM)	76.3%	20.9%	201%	149%	242%	86.5%	84.2%	93.1%	39.1%	121%	163%	162%	101%	118%	74.2%	72.5%
COc1ccc(C2=N[C@@H](c3ccc(Cl)cc3)[C@@H](c3ccc(Cl)cc3)N2C(=O)N2CCNC(=O)C2)c(OC(C)C)c1 [Nutlin-3] + COc1ccc(-c2ccc3c(N4CCOCC4)nc(N4C[C@@H](C)O[C@@H](C)C4)nc3n2)cc1CO [KU0063794] (first compound 0.1 µM, partner dose 0.02 µM)	67.7%	22.6%	22.6%	84.4%	108%	82%	73.8%	80.6%	54.7%	68.3%	61.7%	96.4%	95.5%	142%	82.8%	73.1%
CCCCCCCCc1ccc(CCC(N)(CO)CO)cc1 [fingolimod] + CCc1ccc(CCOc2ccc(CC3SC(=O)NC3=O)cc2)nc1 [pioglitazone] (first compound 2 µM, partner dose 2 µM)	66.8%	22.7%	297%	87.9%	46.6%	106%	61.8%	99.6%	142%	72.1%	109%	43.6%	198%	163%	139%	84.7%

Reference: the supplement of paper PMC4604168 (melanoma cell lines)
